# Laboratory results published in PubChem BioAssay AID624297 (National Center for Advancing Translational Sciences (NCATS), 2012).
# “And” between values parts separate entries of the source, which are not always exact repeats. Identical values can stand only once. In all, about 340,000 compounds went through this assay and about 6,200 (1.8%) were called active. This list was built around the results that the source calls inconclusive (neither active nor inactive); the mix of calls is not that of the screen. The call rests on the fitted dose curve; in most records, active means well fitted activation curve with a large enough effect; inconclusive means small, poorly fitted or top-dose-only effect; inactive means no such curve, though single readings can be large or run the other way. Potencies beside an inconclusive call are fits to weak or partial responses and may not hold up.
# Test: A quantitative high throughput screen for small molecules that induce DNA re-replication in SW480 colon adenocarcinoma cells. Further: nearly all actives have a fitted effect of over 55% in size. On re-replication activation: % of control where 0% means no effect.
# Settings: Hoechst DNA content imaging, 48 h; re-replication activation: at 46.1 µM (top of the series)
# Outline: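 Per well, 250 cells were exposed to pinned compound for 48 hr. Nuclear DNA was visualised with Hoechst (40 min, 37 C) and total object intensity recorded by fluorescence scanning.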
# Potency means the concentration at half of the fitted maximal effect.
SMILES,Potency,re-replication activation
Cn1nccc1C(=O)N1CCC2(CC1)OCCO2,"inconclusive: 20.6 µM [activator, partial curve, poor fit]",–
Cc1cccc(N=C2c3cc([N+](=O)[O-])ccc3-c3c2cc([N+](=O)[O-])cc3[N+](=O)[O-])c1,active: 18.4 µM,–
CCOC(=O)[C@@H]1[C@H]2COc3ccc(Br)cc3[C@@H]2N2C(=O)N(c3cccc(C)c3)C(=O)[C@]12C,"inconclusive: 6.51 µM [activator, partial curve]",–
CCC1CN1P(=O)(Oc1ccc(Cl)cc1)N1CC1CC (stereo not given),inactive,–
O=C1NC(=O)C2(Cc3ccccc3N3CCCC32)C(=O)N1c1ccccc1 (stereo not given),inactive,–
CC(=O)OCC(=O)[C@@H]1CC[C@H]2[C@H]3CC[C@H]4C[C@@H](O)CC[C@]4(C)[C@@H]3C(=O)C[C@@]12C,inactive,–
CC(C)C(=O)Nc1ccc(C(=O)NCc2cccnc2)cc1,active: 0.517 µM,–
S=C1CN=C(c2ccccc2)c2cc(Cl)ccc2N1,"inconclusive: 2.24 µM [activator, partial curve, poor fit]",–
CCN(CC)S(=O)(=O)c1ccc(C)c(NCC(=O)Nc2ccc(C#N)c(Cl)c2)c1,"inconclusive: 0.231 µM [activator, full curve, poor fit]",–
O=C(Cc1ccccc1)N1CCN(Cc2ccc([N+](=O)[O-])cc2)CC1,inactive,–
COc1ccc2c(c1)C(c1ccc(N(CCCl)CCCl)cc1)=NCC2,"inconclusive: 23.1 µM [activator, single point]",–
NC(=O)c1ncn([C@@H]2O[C@H](CO)[C@@H](O)[C@H]2O)n1,"inconclusive: 0.184 µM [activator, single point]",–
COc1ccc(-c2nn(CCC#N)cc2C(=O)Nc2ccc(C(C)=O)cc2)cc1,"inconclusive: 0.291 µM [activator, full curve, poor fit]",–
Cc1cc(OCC(=O)N2CCCN(C)CC2)ccc1Cl,"inconclusive: 29.1 µM [activator, single point]",–
CC(=O)c1ccc(S(=O)(=O)N2CCN(c3nc4c(C)c(C)ccc4cc3C#N)CC2)cc1,"inconclusive: 31.6 µM [activator, single point]",–
N#Cc1c(Br)n(C2OC(CO)C(O)C2O)c2ncnc(N)c12 (stereo not given),"inconclusive: 2.31 µM [activator, partial curve, poor fit]",–
CC1=CC2OC3CC4OC(=O)C=CC=CC(=O)OCCC(C)C(O)C(=O)OCC2(CC1O)C4(C)C31CO1 (stereo not given),"inconclusive: 0.0731 µM [activator, full curve, poor fit]",–
COC(=O)C1=C(c2cc3ccccc3o2)C[C@@H]2CC[C@H]1N2C(=O)NC(C)C,active: 10.3 µM,–
Cc1cc(/C=C2/C(=O)NC(=O)N(C)C2=O)c(C)n1-c1ccccc1,–,inactive: -62.5% [at 1.84 µM]
Clc1ccc(COC(Cn2ccnc2)c2ccc(Cl)cc2Cl)c(Cl)c1 (stereo not given),"inactive and inconclusive: 10.3 µM [activator, single point] and inconclusive: 20.6 µM [activator, single point]",–

SMILES,Potency,re-replication activation
O=C(Nc1ccccc1)c1c(O)[nH]c(=S)[nH]c1=O,"inconclusive: 0.164 µM [activator, full curve, poor fit]",–
C[C@]12CC[C@@H](O)CC1=CCC1C2CC[C@@]2(C)C1CC[C@@H]2N (stereo not given in full),"inconclusive: 23.1 µM [activator, partial curve, poor fit]",–
c1ccc2sc(SNC3CCCCC3)nc2c1,inactive,–
COC(=O)C1=C(c2ccc3ccccc3c2)C[C@@H]2CC[C@H]1N2C(=O)NC1Cc2ccccc2C1,"inconclusive: 23.1 µM [activator, partial curve, poor fit]",–
CCCCOC(=O)c1ccccc1N,"inconclusive: 0.461 µM [activator, single point]",–
O=C1NC(=O)C(=Cc2coc3ccc(O)cc3c2=O)C(=O)N1,"inconclusive: 29.1 µM [activator, single point]",–
Cn1cc(Br)c(C(=O)Nc2ccc3c(C(F)(F)F)cc(=O)oc3c2)n1,"inconclusive: 29.1 µM [activator, single point]",–
O=c1[nH]c(=S)[nH]c(O)c1/C=C1/C=c2ccccc2=N1,"inconclusive: 18.4 µM [activator, single point]",–
O=c1c2ccccc2nc(/C=C/c2ccccc2)n1-c1ccccc1O,"inconclusive: 23.1 µM [activator, single point]",–
O=C(Nc1ccccc1OC(=O)N1CCOCC1)N1CCOCC1,inactive,–
O=C(NC(=O)c1c(F)cccc1F)Nc1ccc(Cl)c(Oc2ncc(C(F)(F)F)cc2Cl)c1,"inconclusive: 8.41 µM [activator, partial curve, poor fit]",–
CCN(CC)CCCOC(=O)C(OC(C)C)(c1ccccc1)c1ccccc1,"inconclusive: 29.1 µM [activator, single point]",–
CCN1CCN(c2cn[nH]c(=O)c2Cl)CC1,inactive,–
O=C(OCC1O[C@@H](OC(=O)c2cc(O)c(O)c(O)c2)[C@@H](OC(=O)c2cc(O)c(O)c(O)c2)[C@@H](OC(=O)c2cc(O)c(O)c(O)c2)[C@@H]1OC(=O)c1cc(O)c(O)c(O)c1)c1cc(O)c(O)c(O)c1 (stereo not given in full),"inconclusive: 29.1 µM [activator, partial curve, poor fit]",–
COc1cc2c(cc1OC)-c1c(OC)c(OC)cc3c1C(C2)N(C)CC3 (stereo not given),"inconclusive: 1.03 µM [activator, full curve, poor fit]",–
COc1ccc(OC)c(C(O)C(C)N)c1 (stereo not given),"inconclusive: 0.146 µM [activator, single point]",–
CCOc1ccccc1N1C(=O)NC(=O)C(CCc2ccncc2)(CCc2ccncc2)C1=O,inactive,–
O=c1cc(-c2ccc(O)c(O)c2)oc2cc(O)cc(O)c12,–,inactive: -26% [at 9.22 µM]
O=C(O)c1ccc([N+](=O)[O-])c([N+](=O)[O-])c1,"inconclusive: 29.1 µM [activator, single point]",–
c1ccc2c(CCNC3CCCCC3)c[nH]c2c1,active: 20.6 µM,–
